Results as given in article PMC12083691.

Sequences of proteins named here, by UniProt entry; tags and fusion partners are left off. A change or cut given only in a name is not applied to a line headed by its entry.
UniProt Q8I4X0: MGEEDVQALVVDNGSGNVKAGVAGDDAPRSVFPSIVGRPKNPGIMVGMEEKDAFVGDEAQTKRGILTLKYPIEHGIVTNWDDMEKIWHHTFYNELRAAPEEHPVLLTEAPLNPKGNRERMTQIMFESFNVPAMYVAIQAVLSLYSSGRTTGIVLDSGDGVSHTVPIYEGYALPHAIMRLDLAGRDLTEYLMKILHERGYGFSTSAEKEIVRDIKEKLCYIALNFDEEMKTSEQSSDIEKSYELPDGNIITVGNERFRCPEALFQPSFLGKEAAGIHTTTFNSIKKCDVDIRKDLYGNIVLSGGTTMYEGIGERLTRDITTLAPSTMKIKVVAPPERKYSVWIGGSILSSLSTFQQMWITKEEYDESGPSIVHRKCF
UniProt Q8IJ32: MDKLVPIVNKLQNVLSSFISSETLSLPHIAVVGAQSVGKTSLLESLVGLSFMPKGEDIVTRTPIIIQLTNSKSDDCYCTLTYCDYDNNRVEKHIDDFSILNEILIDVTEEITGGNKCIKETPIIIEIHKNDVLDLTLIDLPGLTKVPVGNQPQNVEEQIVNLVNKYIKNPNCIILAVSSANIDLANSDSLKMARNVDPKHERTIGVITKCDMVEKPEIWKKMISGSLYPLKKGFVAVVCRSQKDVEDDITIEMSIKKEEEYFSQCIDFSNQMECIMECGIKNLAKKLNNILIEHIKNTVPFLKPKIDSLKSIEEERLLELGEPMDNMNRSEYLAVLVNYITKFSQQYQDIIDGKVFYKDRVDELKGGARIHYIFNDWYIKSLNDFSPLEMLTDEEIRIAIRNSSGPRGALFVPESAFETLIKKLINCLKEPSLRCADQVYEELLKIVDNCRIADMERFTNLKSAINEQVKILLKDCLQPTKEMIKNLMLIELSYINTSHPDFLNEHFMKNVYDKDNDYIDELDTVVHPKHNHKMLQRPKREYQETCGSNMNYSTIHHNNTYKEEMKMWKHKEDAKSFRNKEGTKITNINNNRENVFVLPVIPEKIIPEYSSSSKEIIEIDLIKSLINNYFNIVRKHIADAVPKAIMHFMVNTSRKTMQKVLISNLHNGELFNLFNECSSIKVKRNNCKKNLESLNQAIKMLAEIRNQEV
UniProt Q8IB24: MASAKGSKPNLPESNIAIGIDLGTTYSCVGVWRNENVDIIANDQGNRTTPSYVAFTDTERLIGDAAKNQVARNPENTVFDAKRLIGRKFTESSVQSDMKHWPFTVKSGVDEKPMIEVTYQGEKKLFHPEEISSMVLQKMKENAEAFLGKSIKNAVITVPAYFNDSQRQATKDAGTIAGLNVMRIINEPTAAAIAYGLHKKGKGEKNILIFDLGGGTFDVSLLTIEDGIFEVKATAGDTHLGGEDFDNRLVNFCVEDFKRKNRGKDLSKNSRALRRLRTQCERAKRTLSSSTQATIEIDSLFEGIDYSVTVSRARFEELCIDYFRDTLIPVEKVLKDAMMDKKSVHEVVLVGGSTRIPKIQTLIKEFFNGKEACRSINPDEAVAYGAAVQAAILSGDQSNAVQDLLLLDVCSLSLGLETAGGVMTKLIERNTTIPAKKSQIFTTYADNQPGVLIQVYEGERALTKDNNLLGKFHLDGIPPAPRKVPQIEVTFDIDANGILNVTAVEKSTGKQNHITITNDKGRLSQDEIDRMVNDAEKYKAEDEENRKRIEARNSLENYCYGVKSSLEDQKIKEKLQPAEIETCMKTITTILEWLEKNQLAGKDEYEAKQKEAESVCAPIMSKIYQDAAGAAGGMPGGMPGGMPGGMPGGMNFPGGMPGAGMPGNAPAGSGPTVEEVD

Tests used:
[1] = target: T1, PfAnchor (Pf3D7_0613600) with C-terminal spaghetti monster-V5 tag (Plasmodium falciparum) (UniProt C6KSX8); experiment: affinity purification with mass spectrometry; anti-V5 magnetic beads incubated overnight at 4 °C with cleared RIPA lysates of PfAnchor iKD and PfAnchor^Mev iKD parasites; on-bead digestion, LC-MS; untagged parental 3D7-Cas9 as control; biological duplicates
T1 sequence: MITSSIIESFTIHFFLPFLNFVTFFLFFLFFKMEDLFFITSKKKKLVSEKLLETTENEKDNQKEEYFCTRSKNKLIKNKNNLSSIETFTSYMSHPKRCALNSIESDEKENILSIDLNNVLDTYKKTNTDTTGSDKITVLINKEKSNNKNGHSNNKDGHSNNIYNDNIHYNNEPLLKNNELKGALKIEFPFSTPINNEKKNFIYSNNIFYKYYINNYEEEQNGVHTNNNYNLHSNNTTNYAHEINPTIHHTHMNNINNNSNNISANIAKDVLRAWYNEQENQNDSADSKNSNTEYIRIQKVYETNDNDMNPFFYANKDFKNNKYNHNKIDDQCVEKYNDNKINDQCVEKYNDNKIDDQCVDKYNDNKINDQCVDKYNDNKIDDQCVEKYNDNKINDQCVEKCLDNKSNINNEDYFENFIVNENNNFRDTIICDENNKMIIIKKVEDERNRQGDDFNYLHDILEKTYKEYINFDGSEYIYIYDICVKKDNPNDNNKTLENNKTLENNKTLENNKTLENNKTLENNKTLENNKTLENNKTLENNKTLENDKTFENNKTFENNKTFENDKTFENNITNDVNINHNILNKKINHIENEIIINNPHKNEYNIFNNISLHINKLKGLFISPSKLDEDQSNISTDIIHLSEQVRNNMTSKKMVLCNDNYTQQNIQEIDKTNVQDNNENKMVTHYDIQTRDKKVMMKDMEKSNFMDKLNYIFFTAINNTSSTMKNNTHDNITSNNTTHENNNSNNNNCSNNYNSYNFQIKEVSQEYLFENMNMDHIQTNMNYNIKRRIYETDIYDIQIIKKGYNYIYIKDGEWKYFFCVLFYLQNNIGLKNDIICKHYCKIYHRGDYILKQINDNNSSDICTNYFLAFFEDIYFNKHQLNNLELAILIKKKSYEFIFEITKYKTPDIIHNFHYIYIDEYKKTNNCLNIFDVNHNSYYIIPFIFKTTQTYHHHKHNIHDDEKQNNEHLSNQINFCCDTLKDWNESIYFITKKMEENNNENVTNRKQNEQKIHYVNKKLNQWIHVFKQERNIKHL

[2] = target: T2, PfAnchor-BirA-HA (Plasmodium falciparum) (UniProt C6KSX8); experiment: proximity labelling; BioID with PfAnchor-BirA-HA as bait in parasites; streptavidin magnetic beads on RIPA lysates, LC-MS; two biological replicates; untagged parental parasites as control
T2 sequence: T1 sequence

| Substance | binding [1] | binding [2] |
| --- | --- | --- |
| P. falciparum Minichromosome Maintenance-binding protein (PfMCMBP), endogenous | no binding | – |
| PfActin1 (from UniProt Q8I4X0 1-376) | binds | – |
| PfCinch, a basal complex protein | binds | – |
| PfDyn2 (Pf3D7_1037500), dynamin-like GTPase (from UniProt Q8IJ32) | binds | binds |
| PfHsp70 (PF3D7_0818900) (from UniProt Q8IB24 1-677) | binds | – |
| PfMCM5 | no binding | – |

These are yes or no findings as the source states them, for the method shown. Binding seen in cells or lysates may run through a third protein. These calls come from enrichment with a bait or labelling near it, and not all partners need be listed. For some of these results: No binding means not detected with the bait. Tags and fused reporters may be left off the sequences shown.
